# Assay results published in the supplement of paper PMC3334620.
# In all, about 33,000 sequences were measured (“E-score (-0.5 to 0.5)”: median about -0.015, highest 2% from about 0.3 on). The list shows a part of the results.
# Target: T1, Abf1 (UniProt P14164)
# T1 sequence: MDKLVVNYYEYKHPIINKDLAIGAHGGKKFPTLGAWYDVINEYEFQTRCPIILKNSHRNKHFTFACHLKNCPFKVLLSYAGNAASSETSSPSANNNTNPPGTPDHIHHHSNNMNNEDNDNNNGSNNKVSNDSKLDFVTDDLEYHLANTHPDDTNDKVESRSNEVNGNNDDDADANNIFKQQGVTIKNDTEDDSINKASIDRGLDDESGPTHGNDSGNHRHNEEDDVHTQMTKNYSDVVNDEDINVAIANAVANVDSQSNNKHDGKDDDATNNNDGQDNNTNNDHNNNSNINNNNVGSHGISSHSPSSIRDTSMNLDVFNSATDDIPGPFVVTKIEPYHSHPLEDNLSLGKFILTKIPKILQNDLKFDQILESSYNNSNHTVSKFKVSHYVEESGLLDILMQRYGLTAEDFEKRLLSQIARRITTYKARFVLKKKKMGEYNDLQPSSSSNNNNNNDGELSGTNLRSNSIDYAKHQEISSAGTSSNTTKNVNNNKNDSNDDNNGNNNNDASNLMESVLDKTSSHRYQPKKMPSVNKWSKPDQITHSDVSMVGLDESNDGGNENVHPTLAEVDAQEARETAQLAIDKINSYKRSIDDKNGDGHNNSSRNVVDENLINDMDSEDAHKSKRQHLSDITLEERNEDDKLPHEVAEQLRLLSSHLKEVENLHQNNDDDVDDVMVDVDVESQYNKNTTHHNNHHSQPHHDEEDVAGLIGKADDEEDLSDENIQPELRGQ
# Test: PBM E-score (8-mer binding enrichment) (E-score (-0.5 to 0.5)); higher = stronger / more preferred TF binding
# Settings: protein concentration: 200 nM; construct: GST-full length
# Outline: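 E-scores (a modified Wilcoxon-Mann-Whitney statistic) were assigned by the Universal PBM Analysis Suite to every ungapped eight-base word pooled with its reverse complement. The input came from universal all-10-mer Agilent arrays made double-stranded by primer extension and probed with GST-tagged yeast transcription factors at about 100-200 nM. Fluorescent anti-GST detected bound protein, and masliner normalised the scans.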
row,Sequence,PBM E-score
1,ACGAACGA,0.314
2,AGAATATC,0.218
3,AGGAGAAT,-0.28
4,AGTTGATC,0.091
5,ACTGCCAA,0.123
6,TTCGCAAA,0.00168
7,AACCCCTG,-0.289
8,GCAACGAA,0.227
9,ATCTAAAC,0.00327
10,AAGGTCTC,-0.137
11,AATTGATG,0.103
12,ATGACGTC,0.231
13,AGTTCATG,0.0344
14,CAATCAGC,0.0586
15,AACAGGTT,-0.206
16,CATGCGCC,-0.0508
17,CCCAGCGC,-0.176
18,AATTGCAA,-0.0314
19,CACAACGC,-0.174
20,CCTCCCAG,-0.196
21,ATTATTTC,0.211
22,AGGCCGTG,0.092
23,AAGTAATT,0.129
24,GGTAGCAC,-0.167
25,GTTTCGGA,0.0277

row,Sequence,PBM E-score
1,AGCATACA,0.0592
2,GAATGCGA,0.0209
3,CTATCCAG,-0.134
4,AGTAGCTA,-0.112
5,GAGAGAGC,-0.116
6,CGGCCGAA,-0.0221
7,CTCAAGCC,-0.315
8,CGGTGGAG,-0.135
9,GGGATCAA,0.0464
10,GACGGACA,0.0588
11,AGCCTTAT,0.0606
12,TGAAACCA,-0.0487
13,ATTGTCTC,0.13
14,CGCCATGA,0.101
15,TACTGTAA,-0.146
16,ACGACTGA,0.144
17,CAACTCGA,-0.127
18,AGTAGGCG,-0.0728
19,CTATAGTA,-0.00399
20,GGTGGGAA,-0.0486
21,CCTCCGCC,-0.059
22,CACGCGCA,-0.025
23,AATAGCTG,-0.064
24,ATTTCAAA,0.109
25,AATTTCCG,0.169

row,Sequence,PBM E-score
1,ATATCAGG,0.0336
2,ACCCTCAA,-0.107
3,GGGACCCA,-0.327
4,CGAGATGC,0.0945
5,ATCCTTGA,-0.145
6,CTGTAACC,-0.0333
7,CAGGGATG,0.0507
8,CGATTTAA,0.12
9,CATTAAAC,0.0861
10,ATGTCCGA,0.00408
11,AGTGGACC,-0.0472
12,AATGGGGC,-0.224
13,AAAATATT,0.0903
14,GCTCTCCC,-0.275
15,GGGAGGGA,-0.238
16,AAAGCATG,-0.188
17,CCGGGAAA,-0.0258
18,ATTATGCA,-0.114
19,GAGTAACA,0.0227
20,CATAAATC,0.00674
21,GATTTGGA,0.0327
22,ATCTTCTA,0.119
23,AAGGGTCA,-0.128
24,GCATTCCC,-0.0595
25,TACCTCAA,0.0571

row,Sequence,PBM E-score
1,ACGGAAGC,0.167
2,CACCCTGC,0.0175
3,AAGGTTTA,-0.0569
4,TTGTGAAA,0.0588
5,ACATGATC,0.292
6,CGCCAGCG,-0.0651
7,CAAGAGGA,0.0603
8,AAAGCAGA,-0.0436
9,GACCAACC,0.045
10,ATATTCCC,-0.0189
11,GAATTGCC,-0.00785
12,ACATACCC,-0.0101
13,GCAAAGGA,0.032
14,ATCAACTA,0.0982
15,ATACGACC,0.239
16,CGCGCTCA,0.00581
17,AAGCGAAC,-0.113
18,AAATCATA,0.194
19,CGCCAGGA,-0.139
20,ACGAGCAG,-0.00465
21,AGCGACGG,0.208
22,CTGGGCTA,-0.216
23,CTATTTCA,0.162
24,CACCGGAC,-0.163
25,ACATTGGC,-0.102

row,Sequence,PBM E-score
1,ACCGTCGT,0.289
2,CATCTTCC,0.126
3,GTCGGTTA,-0.00726
4,GGGCGAAC,-0.164
5,CGGGCGAA,-0.0488
6,CAGGATGG,-0.126
7,TAGCGATA,0.347
8,AGGCGAAA,0.0109
9,CGGAGAGA,-0.0233
10,AACCATGA,0.104
11,CAGGTTAC,0.0521
12,ATCCAACG,0.0491
13,AATGCATT,0.131
14,ACACACTA,-0.0945
15,AAGGAAAC,-0.0411
16,ACCCAGTG,-0.077
17,GACGGGAC,-0.171
18,GAATCCAA,0.0635
19,GCGTGACC,0.108
20,GAATATTC,0.0666
21,CACTAACG,0.0881
22,CCTTCCTC,-0.283
23,GACCTGCC,-0.13
24,CGGTAAAA,-0.0512
25,CAACCGGA,0.00066

row,Sequence,PBM E-score
1,CAATCTAG,-0.095
2,AAGCCCAA,-0.219
3,CACAGAGA,-0.0444
4,AACGTGGC,-0.133
5,AGTATTAC,0.2
6,ACTCGGGA,-0.0472
7,CGATCCGC,-0.155
8,AGAAATGG,-0.0914
9,ATGATGTC,0.274
10,ACTGAAAT,-0.0641
11,CCCTCAGG,-0.165
12,AGTTACTG,-0.176
13,CAGGAGTC,-0.0846
14,CACAAGGC,-0.125
15,CCTGGCTA,-0.122
16,TGAGCTCA,-0.235
17,AGACTGGA,-0.122
18,AATGTCCG,0.141
19,CATCAACA,0.0969
20,CACATGTG,-0.128
21,ATGCGTGC,0.0427
22,CTGTCACA,0.138
23,AAAAATTA,0.159
24,GAAAGCCA,-0.149
25,ATGAAGAC,0.119

row,Sequence,PBM E-score
1,AACTTTAA,0.166
2,TAGCTGGA,-0.206
3,AAGGATCA,-0.0554
4,GAATGTCC,-0.0713
5,ATAAGGCA,0.14
6,GAGCGTGA,0.138
7,CTCGTGGA,0.188
8,GGGAGCTA,-0.164
9,CGTACGCC,0.155
10,ATGAGTTG,-0.0628
11,CAATCAAG,-0.157
12,CACAGTTA,0.164
13,AAATCGCC,0.0447
14,ATGTAGAA,-0.0981
15,CGAAAAGA,0.0367
16,GTTGTAGA,0.163
17,CGTTGCTC,-0.123
18,ATCCCGCG,0.215
19,CGAATCGA,0.126
20,ACTAGGCG,0.00556
21,TGCAAACA,0.0172
22,CGTACACA,0.318
